Reference: PubChem BioAssay AID652272 (Drosophila RNAi Screening Center, 2013)

Purpose: 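Finding fly genes that regulate Hedgehog signal transduction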 (primary screen)
Cell system: Drosophila clone 8 (Cl8) cells
Knock-down reagent: long dsRNA against Drosophila genes
Measurement: 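Plate reader light from a firefly reporter under a ptc promoter fragment that responds to Hedgehog, with Renilla light as transfection reference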
Direction: firefly Hh reporter signal: higher = more ptc reporter light; Renilla reference signal: higher = more Renilla control light
Hit rule: 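Called a hit if the two-replicate mean z-score lies below -2 or above +3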
Calls: active = hit: reporter lowered or raised; inactive = not a hit
The screen tested about 21,000 reagents; this is a random part of those that have a named target and a result. In the full data, 503 (2.4%) got an active call. 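Raw plate light values, not normalised; calls rest on replicate z-scores that were not deposited; hits include reporter decreases as well as increases.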 The numbers tell different reagents against one gene apart. Not stated in the record: the amount of reagent, the time to read-out.

Target gene	dsRNA no.	firefly Hh reporter signal, replicate 1	firefly Hh reporter signal, replicate 2	firefly Hh reporter signal, replicate 3	Renilla reference signal, replicate 1	Renilla reference signal, replicate 2	outcome
Kua	1	82561	58512		2212	5273	inactive
Pex7 (Peroxin 7)	1	31841	57077		4456	3789	inactive
alpha-Est2 (alpha-Esterase-2)	1	56690	87362		1437	2434	inactive
CG31741	1	86739	73312		2250	6464	inactive
cnk (connector enhancer of ksr)	1	93728	49489		2010	3803	inactive
GlyT (Glycine transporter)	1	52874	43564		1228	4368	inactive
CG32537	1	1.16e5	68387		2757	1659	inactive
CG7692	1	1.14e5			1988	3704	inactive
CG10591	1	1.38e5	1.05e5		5286	4300	inactive
CG1812	1	1.45e5	1.40e5		3554	3818	inactive
atilla	1	1.67e5	85196		4064	7719	inactive
ppk13 (pickpocket 13)	1	85744	57351		2392	5116	inactive
LManV (Lysosomal alpha-mannosidase V)	1	70658	70251		3037	2816	inactive
CG3407	1	66017	82220		3585	3757	inactive
kkv (krotzkopf verkehrt)	1	98151	96088		3984	3746	inactive
Itpr (Inositol 1,4,5,-trisphosphate receptor)	1	53801	1.02e5		1860	2791	inactive
CG16789	1	77929	1.05e5		2819	3008	inactive
wun2 (wunen-2)	1	1.60e5	64822		4256	6217	inactive
Arp6 (Actin-related protein 6)	1	1.16e5	1.02e5		2832	2219	inactive
CG7691	1	7.53e5	87664		35301	2848	inactive
Tlk (Tousled-like kinase)	1	4.29e5	2.82e5		21037	5362	inactive
Tlk (Tousled-like kinase)	2	56810	1.59e5		1636	5366	inactive
Tlk (Tousled-like kinase)	3	38045	39354		865	2267	inactive
CG14499	1	81812	60357		1973	4486	inactive
TAF1C-like	1	2.09e5	1.02e5		7100	4048	inactive
Pop1 (POP1 ribonuclease P/MRP subunit)	1	1.23e5	1.02e5		2839	2693	inactive
veil	1	97644	99867		4909	3796	inactive
LysX (Lysozyme X)	1	89347	54208		2579	4331	inactive
Lsp1gamma (Larval serum protein 1 gamma)	1	69197	62819		3340	2592	inactive
SerRS (Seryl-tRNA synthetase)	1	94311	80160		5250	3868	inactive
CG11267	1	44576	69378	53626	5595	3635	inactive
CG32379	1	38643	38791		5216	3329	inactive
Nepl7 (Neprilysin-like 7)	1	1.86e5	75608		4962	7249	inactive
Ndf (Nucleosome-destabilizing factor)	1	80534	32496		3344	1729	inactive
CG8399	1	1.05e5	62112		4725	2822	inactive
Amt (Ammonium transporter)	1	84080	1.00e5		3360	2976	inactive
Dnz1 (DNZDHHC/NEW1 zinc finger protein 11)	1	76733	59440		2978	2257	inactive
ix (intersex)	1	63042	52529		1648	3573	inactive
lwr (lesswright)	1	88640	68409		4242	2944	inactive

Copied from the list.
Under “Renilla reference signal, replicate 2”, Pex7 (Peroxin 7) has 3789
Result for CG10591 in “Renilla reference signal, replicate 2”: 4300
veil, Renilla reference signal, replicate 1 → 4909
kkv (krotzkopf verkehrt), Renilla reference signal, replicate 2 = 3746
Result of CG14499 in “firefly Hh reporter signal, replicate 2”: 60357
